Some of the results follow. Most values lie at the level of the controls, where differences are scatter.
Compound: CN[C@@H]1C[C@H]2O[C@@](C)([C@@H]1OC)n1c3ccccc3c3c4c(c5c6ccccc6n2c5c31)C(=O)NC4 [staurosporine]
Experiment: log2 fold change of tryptic peptide abundance, ligand vs vehicle (limited proteolysis) (log2 ratio); higher = more trypsin-susceptible (destabilized)
Settings: ligand concentration: 20 uM; sample: mouse liver crude lysate; replicate design: treated separately

The chains behind the UniProt entries cited, without tags or fusion partners. Where a name states a change or a piece, a line headed by the entry shows the natural chain unless it says otherwise.
UniProt Q60649: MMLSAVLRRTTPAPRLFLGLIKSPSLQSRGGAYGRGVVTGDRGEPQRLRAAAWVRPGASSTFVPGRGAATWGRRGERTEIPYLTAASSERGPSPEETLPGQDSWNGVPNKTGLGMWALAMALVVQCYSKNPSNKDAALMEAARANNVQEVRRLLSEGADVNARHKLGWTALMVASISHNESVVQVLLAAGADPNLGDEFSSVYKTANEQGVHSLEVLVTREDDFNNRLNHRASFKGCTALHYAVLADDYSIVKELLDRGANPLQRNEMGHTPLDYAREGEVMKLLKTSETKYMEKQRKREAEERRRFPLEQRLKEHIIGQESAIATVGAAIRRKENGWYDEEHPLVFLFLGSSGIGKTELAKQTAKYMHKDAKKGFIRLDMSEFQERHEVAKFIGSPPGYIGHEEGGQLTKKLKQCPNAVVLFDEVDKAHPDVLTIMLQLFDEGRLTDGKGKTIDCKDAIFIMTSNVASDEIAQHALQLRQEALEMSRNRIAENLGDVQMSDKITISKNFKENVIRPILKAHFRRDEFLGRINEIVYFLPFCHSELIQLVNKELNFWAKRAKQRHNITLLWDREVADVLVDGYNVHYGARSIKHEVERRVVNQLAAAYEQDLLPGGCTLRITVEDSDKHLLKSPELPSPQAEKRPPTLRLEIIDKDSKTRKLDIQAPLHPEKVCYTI
UniProt Q60805: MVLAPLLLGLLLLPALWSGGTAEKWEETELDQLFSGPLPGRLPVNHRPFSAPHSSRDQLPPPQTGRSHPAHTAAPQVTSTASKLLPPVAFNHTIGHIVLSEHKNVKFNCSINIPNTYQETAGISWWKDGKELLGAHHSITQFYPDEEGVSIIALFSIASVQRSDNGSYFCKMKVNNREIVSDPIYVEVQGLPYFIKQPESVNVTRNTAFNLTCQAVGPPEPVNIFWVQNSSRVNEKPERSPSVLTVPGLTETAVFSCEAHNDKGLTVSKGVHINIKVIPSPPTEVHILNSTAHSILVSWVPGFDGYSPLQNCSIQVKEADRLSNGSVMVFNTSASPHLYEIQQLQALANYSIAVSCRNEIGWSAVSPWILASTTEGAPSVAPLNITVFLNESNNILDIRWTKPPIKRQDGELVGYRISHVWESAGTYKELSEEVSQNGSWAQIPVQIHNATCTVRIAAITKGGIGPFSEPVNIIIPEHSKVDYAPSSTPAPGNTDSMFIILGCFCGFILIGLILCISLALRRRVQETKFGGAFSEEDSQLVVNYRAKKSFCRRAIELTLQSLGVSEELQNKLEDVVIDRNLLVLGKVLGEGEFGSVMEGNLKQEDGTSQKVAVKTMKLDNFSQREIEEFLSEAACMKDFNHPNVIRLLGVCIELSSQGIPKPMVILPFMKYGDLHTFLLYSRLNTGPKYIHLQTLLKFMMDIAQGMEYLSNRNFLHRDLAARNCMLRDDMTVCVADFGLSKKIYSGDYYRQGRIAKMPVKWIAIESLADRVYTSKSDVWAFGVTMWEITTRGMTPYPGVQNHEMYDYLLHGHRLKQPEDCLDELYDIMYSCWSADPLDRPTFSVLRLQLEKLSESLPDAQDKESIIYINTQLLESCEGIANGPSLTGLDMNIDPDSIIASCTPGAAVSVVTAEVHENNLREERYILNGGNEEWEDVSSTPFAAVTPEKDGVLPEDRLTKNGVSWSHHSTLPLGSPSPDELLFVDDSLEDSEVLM
UniProt Q5U5Q9: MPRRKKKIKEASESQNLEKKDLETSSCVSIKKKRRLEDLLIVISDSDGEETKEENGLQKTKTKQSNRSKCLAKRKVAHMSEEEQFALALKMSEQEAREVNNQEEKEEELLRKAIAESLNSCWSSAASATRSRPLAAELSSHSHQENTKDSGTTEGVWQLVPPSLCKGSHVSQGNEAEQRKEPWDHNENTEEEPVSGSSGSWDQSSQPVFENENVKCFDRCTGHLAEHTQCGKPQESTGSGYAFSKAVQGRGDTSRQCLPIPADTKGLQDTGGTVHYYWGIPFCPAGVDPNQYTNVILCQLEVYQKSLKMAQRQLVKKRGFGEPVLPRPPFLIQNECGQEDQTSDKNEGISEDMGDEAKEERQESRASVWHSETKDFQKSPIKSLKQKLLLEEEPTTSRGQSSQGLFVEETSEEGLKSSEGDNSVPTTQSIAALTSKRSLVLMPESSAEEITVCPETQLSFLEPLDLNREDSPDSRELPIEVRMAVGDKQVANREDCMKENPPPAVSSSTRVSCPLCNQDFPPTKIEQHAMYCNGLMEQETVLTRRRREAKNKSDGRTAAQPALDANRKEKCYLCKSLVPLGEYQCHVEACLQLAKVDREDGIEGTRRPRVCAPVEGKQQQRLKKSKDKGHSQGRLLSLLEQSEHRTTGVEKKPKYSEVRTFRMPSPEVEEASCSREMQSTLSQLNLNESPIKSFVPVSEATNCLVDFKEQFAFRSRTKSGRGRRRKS
UniProt Q61165, whole entry: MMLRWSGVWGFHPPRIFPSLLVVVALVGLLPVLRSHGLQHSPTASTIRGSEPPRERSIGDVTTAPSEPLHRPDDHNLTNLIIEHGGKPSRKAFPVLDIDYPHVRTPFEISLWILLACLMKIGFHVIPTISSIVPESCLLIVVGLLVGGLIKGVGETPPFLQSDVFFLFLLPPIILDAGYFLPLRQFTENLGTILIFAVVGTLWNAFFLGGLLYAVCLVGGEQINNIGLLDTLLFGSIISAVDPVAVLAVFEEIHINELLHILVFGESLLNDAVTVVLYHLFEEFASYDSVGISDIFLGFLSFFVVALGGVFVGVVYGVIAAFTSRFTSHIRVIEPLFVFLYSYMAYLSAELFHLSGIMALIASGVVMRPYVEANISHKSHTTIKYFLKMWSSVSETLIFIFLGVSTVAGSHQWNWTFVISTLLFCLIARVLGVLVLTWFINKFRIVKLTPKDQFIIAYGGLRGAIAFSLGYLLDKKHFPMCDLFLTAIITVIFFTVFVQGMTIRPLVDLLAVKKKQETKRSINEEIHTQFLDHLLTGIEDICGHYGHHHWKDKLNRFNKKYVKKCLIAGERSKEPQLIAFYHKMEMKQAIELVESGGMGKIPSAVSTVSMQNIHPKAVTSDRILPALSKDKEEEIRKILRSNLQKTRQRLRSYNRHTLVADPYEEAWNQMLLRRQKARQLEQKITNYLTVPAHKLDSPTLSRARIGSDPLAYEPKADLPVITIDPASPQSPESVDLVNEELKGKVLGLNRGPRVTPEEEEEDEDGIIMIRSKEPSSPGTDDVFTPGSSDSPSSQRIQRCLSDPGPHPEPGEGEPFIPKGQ
UniProt Q60949: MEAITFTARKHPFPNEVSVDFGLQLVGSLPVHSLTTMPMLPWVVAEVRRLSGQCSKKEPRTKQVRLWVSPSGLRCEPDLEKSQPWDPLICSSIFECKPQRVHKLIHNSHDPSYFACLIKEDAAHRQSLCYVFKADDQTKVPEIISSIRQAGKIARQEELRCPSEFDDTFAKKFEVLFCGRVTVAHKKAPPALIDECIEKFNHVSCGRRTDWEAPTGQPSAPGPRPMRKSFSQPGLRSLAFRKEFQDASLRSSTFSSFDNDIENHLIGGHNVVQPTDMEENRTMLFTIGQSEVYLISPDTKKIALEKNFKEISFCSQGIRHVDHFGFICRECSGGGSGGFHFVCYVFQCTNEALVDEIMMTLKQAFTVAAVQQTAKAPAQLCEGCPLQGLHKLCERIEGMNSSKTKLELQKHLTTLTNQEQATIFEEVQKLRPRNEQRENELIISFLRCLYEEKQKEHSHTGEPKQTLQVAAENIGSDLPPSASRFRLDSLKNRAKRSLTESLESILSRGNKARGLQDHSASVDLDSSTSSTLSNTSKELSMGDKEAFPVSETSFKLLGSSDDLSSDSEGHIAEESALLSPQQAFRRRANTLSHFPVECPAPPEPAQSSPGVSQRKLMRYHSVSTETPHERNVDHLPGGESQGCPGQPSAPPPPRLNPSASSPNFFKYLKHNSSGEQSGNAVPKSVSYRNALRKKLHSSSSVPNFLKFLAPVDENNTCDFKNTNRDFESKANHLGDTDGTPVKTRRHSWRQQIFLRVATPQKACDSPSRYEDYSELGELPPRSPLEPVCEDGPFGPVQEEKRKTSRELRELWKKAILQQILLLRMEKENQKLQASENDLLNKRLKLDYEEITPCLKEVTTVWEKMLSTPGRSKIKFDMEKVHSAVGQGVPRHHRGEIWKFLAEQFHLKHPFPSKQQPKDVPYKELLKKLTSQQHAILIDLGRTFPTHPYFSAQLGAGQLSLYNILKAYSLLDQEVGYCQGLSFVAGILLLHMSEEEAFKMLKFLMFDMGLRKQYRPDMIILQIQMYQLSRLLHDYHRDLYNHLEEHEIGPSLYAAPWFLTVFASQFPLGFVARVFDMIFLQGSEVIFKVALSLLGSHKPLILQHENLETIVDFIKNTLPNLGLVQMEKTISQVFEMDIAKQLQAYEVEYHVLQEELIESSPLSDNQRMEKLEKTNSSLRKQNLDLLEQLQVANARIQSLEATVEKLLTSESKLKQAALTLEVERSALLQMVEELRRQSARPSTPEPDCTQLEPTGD
UniProt Q60930: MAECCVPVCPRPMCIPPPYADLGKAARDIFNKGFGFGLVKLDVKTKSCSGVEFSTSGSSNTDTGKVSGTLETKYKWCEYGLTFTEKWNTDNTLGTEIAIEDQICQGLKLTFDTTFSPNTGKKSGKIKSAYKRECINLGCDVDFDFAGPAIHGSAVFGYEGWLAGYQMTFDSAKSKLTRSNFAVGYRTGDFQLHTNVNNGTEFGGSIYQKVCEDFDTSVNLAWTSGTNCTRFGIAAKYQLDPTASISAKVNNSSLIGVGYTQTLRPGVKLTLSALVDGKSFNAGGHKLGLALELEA
UniProt Q60967: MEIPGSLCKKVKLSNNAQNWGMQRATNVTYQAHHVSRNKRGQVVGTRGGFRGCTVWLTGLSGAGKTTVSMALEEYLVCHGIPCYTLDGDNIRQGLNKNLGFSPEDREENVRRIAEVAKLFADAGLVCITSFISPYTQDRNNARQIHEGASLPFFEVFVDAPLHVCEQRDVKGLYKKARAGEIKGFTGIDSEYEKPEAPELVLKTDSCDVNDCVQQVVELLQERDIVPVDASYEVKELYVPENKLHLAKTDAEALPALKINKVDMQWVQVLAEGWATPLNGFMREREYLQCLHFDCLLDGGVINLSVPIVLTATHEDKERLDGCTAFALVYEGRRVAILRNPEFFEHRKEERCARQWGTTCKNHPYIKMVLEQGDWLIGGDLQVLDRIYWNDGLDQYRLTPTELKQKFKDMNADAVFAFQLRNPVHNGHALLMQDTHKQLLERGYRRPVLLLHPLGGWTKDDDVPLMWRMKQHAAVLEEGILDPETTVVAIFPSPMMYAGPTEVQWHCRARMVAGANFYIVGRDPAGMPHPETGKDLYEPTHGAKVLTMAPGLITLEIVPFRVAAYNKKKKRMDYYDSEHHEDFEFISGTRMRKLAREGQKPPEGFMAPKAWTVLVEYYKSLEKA
UniProt Q61151, whole entry: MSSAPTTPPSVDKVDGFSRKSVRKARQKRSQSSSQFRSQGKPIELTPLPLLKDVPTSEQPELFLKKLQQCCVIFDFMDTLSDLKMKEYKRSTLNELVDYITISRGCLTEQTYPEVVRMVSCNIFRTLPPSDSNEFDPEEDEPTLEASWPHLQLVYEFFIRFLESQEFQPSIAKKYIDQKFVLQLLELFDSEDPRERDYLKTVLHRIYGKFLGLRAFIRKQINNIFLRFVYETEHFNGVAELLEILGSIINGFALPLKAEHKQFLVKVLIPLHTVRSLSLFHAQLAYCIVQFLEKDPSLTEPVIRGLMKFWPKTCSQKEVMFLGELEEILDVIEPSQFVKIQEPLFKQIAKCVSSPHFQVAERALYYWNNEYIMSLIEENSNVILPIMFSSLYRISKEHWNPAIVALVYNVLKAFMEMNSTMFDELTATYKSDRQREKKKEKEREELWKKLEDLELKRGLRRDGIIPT

Target | log2 fold change
UniProt Q60649 (peptide sequence: EDDFNNRLNHR, peptide start residue: 221) | -0.399
UniProt Q60805 (peptide sequence: SHPAHTAAPQVTSTASK, peptide start residue: 67) | 0.288
UniProt Q5U5Q9 (peptide sequence: GSHVSQGNEAEQR, peptide start residue: 167) | 1.05
UniProt Q5RJH6 (peptide sequence: NPSNSCDSGEKPVVTFK, peptide start residue: 531) | 0.34
UniProt Q61165 (peptide sequence: ITNYLTVPAHK, peptide start residue: 684) | 0.228
UniProt Q5PRF0 (peptide sequence: YSSVFKR, peptide start residue: 1984) | -0.343
UniProt Q5XJE5 (peptide sequence: QGTGLQGQAVFK, peptide start residue: 476) | 0.304
UniProt Q60949 (peptide sequence: ELSMGDKEAFPVSETSFK, peptide start residue: 538) | -0.296
UniProt Q60930 (peptide sequence: YQLDPTASISAK, peptide start residue: 237) | -0.141
UniProt Q60967 (peptide sequence: RPVLLLHPLGGWTK, peptide start residue: 446) | -0.578
UniProt Q61151 (peptide sequence: MVSCNIFR, peptide start residue: 118) | -0.174

At a glance, some entries already given:
Target | log2 fold change
UniProt Q60949 (peptide sequence: ELSMGDKEAFPVSETSFK, peptide start residue: 538) | -0.296
UniProt Q60930 (peptide sequence: YQLDPTASISAK, peptide start residue: 237) | -0.141

Source: the supplement of paper PMC12819154, “High-throughput peptide-centric local stability assay extends protein–ligand identification to membrane proteins, tissues and bacteria” (Nature Structural & Molecular Biology, 2025)
